Results deposited as PubChem BioAssay AID602196 (INSERM, 2012).

- Test: 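Knock-downs that protect lung cancer cells from cisplatin or sensitise them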
- System: human A549 lung cancer cells
- Reagents: siRNA pair against human genes
- Time to read-out: 48 h transfection before cisplatin; time from cisplatin to read-out not stated
- Conditions: cisplatin at a dose killing half of control-siRNA cells; exact dose and duration not given
- Detection: 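Shift in cisplatin death relative to control siRNA, from -50 (all cells die) to +50 (no cells die); siRNAs harmful on their own scored 0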
- Direction: two-siRNA summed score (-2 to +2): higher = both siRNAs protect from cisplatin killing; -2 means both sensitise; mean protection from cisplatin (shift in death) and protection from cisplatin (shift in death), siRNA C and protection from cisplatin (shift in death), siRNA D: higher = protection from cisplatin killing
- Rule for the call: 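Each siRNA scores 0 if harmful alone by LDH or WST-1, otherwise +1 if it reduces and -1 if it increases cisplatin killing; a gene is active when both siRNAs agree (sum +2 or -2)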
- Calls: active = both siRNAs shift cisplatin killing the same way; inactive = no consistent shift, or siRNA harmful alone
The deposit covers about 23,000 reagents; below is a random part of them. Over the whole deposit, 455 (2%) are marked active. 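Active includes both protection and sensitisation; some change values fall well beyond the stated -50 to +50 range.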 Not given: the amount of reagent.

no.	gene knocked down	PubChem SID	two-siRNA summed score (-2 to +2)	mean protection from cisplatin (shift in death) (%)	protection from cisplatin (shift in death), siRNA C (%)	protection from cisplatin (shift in death), siRNA D (%)	activity call
1	NRTN	SID131512410	0	5.4	-3.1	14	inactive
2	ZFPM2	SID131521049	1	12	6.7	17.3	inactive
3	LOC389722	SID131516612	0	11.2	18.4	4	inactive
4	OR4C6	SID131503947	0	-7.1	-12.4	-1.8	inactive
5	ISCU	SID131505669	0	-2.8	0.2	-5.7	inactive
6	PABPN1	SID131508876	0	1.6	9.6	-6.5	inactive
7	KIAA0540	SID131512961	0	6	3.7	8.4	inactive
8	FXR2	SID131508610	0	1.3	6.9	-4.3	inactive
9	C8A	SID131501233	-1	-11.2	-5	-17.5	inactive
10	ZSWIM9	SID131517664	0	14.3	27.9	0.6	inactive
11	RAB6C	SID131520117	1	8.7	-8.4	25.9	inactive
12	LOC391540	SID131515428	0	9.2	0.7	17.6	inactive
13	LOC442159	SID131501732	-1	-7.7	-9.9	-5.5	inactive
14	CDIPTOSP	SID131514519	0	7.9	7.5	8.3	inactive
15	ZFYVE27	SID131512726	0	5.8	-0.9	12.5	inactive
16	TPT1	SID131519369	1	5.1	0.8	9.5	inactive
17	LOC284912	SID131521790	1	14.9	10.9	18.9	inactive
18	IMPA2	SID131511802	0	4.8	-4.9	14.4	inactive
19	KRT40	SID131514426	0	7.8	10.5	5.1	inactive
20	SLC16A7	SID131511697	0	4.6	4.6	4.7	inactive
21	ST14	SID131508284	0	0.9	1.1	0.6	inactive
22	ATG4B	SID131505603	0	-2.9	-4.6	-1.2	inactive
23	LOC284390	SID131522829	1	25.8	24.2	27.5	inactive

Laid out differently: results already given
gene knocked down | PubChem SID | two-siRNA summed score (-2 to +2) | mean protection from cisplatin (shift in death) (%) | protection from cisplatin (shift in death), siRNA C (%) | protection from cisplatin (shift in death), siRNA D (%) | activity call
FXR2 | SID131508610 | 0 | 1.3 | 6.9 | -4.3 | inactive
C8A | SID131501233 | -1 | -11.2 | -5 | -17.5 | inactive
ZSWIM9 | SID131517664 | 0 | 14.3 | 27.9 | 0.6 | inactive
